# Results taken from patent EP0358766A1, “METHOD OF STERILIZING PLANT ANTHERS” (VSESOJUZNY NAUCHNO-ISSLEDOVATELSKY INST. SELSKOKHOZYAISTV. …, priority 1988, dated 1989).
# Assays:
# [1] = test system: Sonnenblume Sorte Peredovik; assay: Field test of pollen sterilisation, sunflower Peredovik; assay type: in vivo
# Excerpt: (§1) Die gametozide Aktivität der erfindungsgemäßen Sterilisationsmittel war in Feldversuchen in verschiedenen bodenklimatischen Zonen mit Teilstücken von 10 m^2 Größe in dreibis viermaliger Wiederholung festgestellt. Jedes Sterilisationsmittel wurde mindenstens 5 Jahre lang geprüft.
# (§2) Die Entwicklung der Perioden der Organogenese wird zytologisch überwacht. Die Behandlung von Pflanzen mit dem Sterilisationsmittel erfolgt am Anfang der fünften Periode der Organogenese nach Kupermann.
# (§3) Zur Kontrolle der chemischen Sterilisation des Sonnenblumenpollens werden für jede Verbindung 45 behandelte Pflanzen je Wiederholung benutzt, wobei 15 Pflanzen zwecks Selbstbestäubung des Blütenkörbchens isoliert werden, 15 Pflanzen mit einem Pollengemisch, gesammelt von 20 bis 25 behandelten isolierten Körbchen, bestäubt werden, und 15 Pflanzen für freie Bestäubung gelassen werden, damit das Ansetzen von Achänen mit dem Pollen der Vaterform kontrolliert worden kann.
# (§4) Man beurteilt die Pollensterilität von Pflanzen der Sonnenblume nach der Pollenfertilität und -keimfähigkeit, nach den morphologischen Besonderheiten von Spermien und nach der Fähigkeit von Achänen […] bei der Bestäubung der behandelten isolierten Pflanzen mit dem Pollen der unbehandelten väterlichen Form. Die Lebensfähigkeit der Eizelle wird nach der Samenbildung bei behandelten Pflanzen bei freier Bestäubung der väterlichen Form bestimmt.
# Pflanzen der Sonnenblume Sorte Peredovik werden in der V. Periode der Organogenese (nach Kupermann) mit einer 0,2%igen wäßrigen Emulsion von 1,1,3-Tribrompropan, 1,2--Dibrompropan behandelt. Die Emulsion enthält 0,5 Masse% C12-C14-Kalziumalkylbenzolsulfonat und 0,01 Masse% Dimethylsulfoxid als Adjuvans. Der Verbrauch an Präparat beträgt 1,2 kg/ha bei 600 1 Wasserdurchsatz. Die Prüfergebnisse sind in der Tabelle 16 angegeben. Die gleichen Ergebnisse sind bei der Behandlung der Sonnenblume Sorte Peredovik in der VI. Periode der Organogenese erhalten.
# Man verfährt analog den Beispielen 85 und 86. Als Sterilisationsmittel dient eine 0,1%ige wäßrige Emulsion von 1,2-Dibrom-3-chlorpropan. Der Verbrauch an Präparat beträgt […]. Die Prüfergebnisse sind in der Tabelle 16 angegeben.
# Sonnenblume Linie BK 119 = assay: Field test of pollen sterilisation, sunflower line BK 119; assay type: in vivo
# Excerpt: as §1, §2, §3, §4
# Pflanzen der Sonnenblume Linie BK 119 werden mit einer 0,2%igen wäßrigen Emulsion von 1,1,3-Tribrompropan bzw. 1,2-Dibrompropan behandelt. Die Emulsion enthält 0,5 Masse% C12-C14 Natriumalkylbenzolsulfonat und 0,01 Masse% Dimethylformamid als Adjuvans. Der Verbrauch an Präparat beträgt 1,2 kg/ha bei 600 1 Wasserdurchsatz. Die Prüfergebnisse sind in der Tabelle 17 angegeben. Die gleichen Ergebnisse sind bei der Behandlung von Sonnenblume Linie BK in der VI. Periode der Organogenese erhalten.
# Man verführt analog den Beispielen 88-89. Als Sterilisationsmittel dient eine 0,1%ige wäßrige Emulsion von 1,2--Dibrom-3-chlorpropan. Der Verbrauch an Präparat beträgt 0,6 kg/ha bei 600 1 Wasserdurchsatz. Die Prüfergebnisse sind in der Tabelle 17 angegeben.
# [2] = period V, 0.2% aqueous emulsion, 1.2 kg/ha in 600 l water
# [3] = 0.2% aqueous emulsion, 1.2 kg/ha in 600 l water
# [4] = 0.1% aqueous emulsion, 1.0 kg/ha
# [5] = 0.1% aqueous emulsion, 0.6 kg/ha in 600 l water
smiles,measurement,setting,value
"BrCCC(Br)Br [Beispiel 1, 1,1,3-Tribrompropan]",Keimung von Achänen in %,[1]; [2],"100,0%"
same,Masse von 1000 Achänen,[1]; [2],"80,4"
same,Ölgehalt von Achänen in %,[1]; [2],"54,5%"
same,Keimung von Achänen in %,Sonnenblume Linie BK 119; [3],"96,6%"
same,Masse von 1000 Achänen in %,Sonnenblume Linie BK 119; [3],"56,7%"
same,Ölgehalt von Achänen in g,Sonnenblume Linie BK 119; [3],"51,1 g"
"CC(Br)CBr (stereo not drawn) [Beispiel 5, 1,2-Dibrompropan]",Keimung von Achänen in %,[1]; [2],"100,0%"
same,Masse von 1000 Achänen,[1]; [2],"82,7"
same,Ölgehalt von Achänen in %,[1]; [2],"53,2%"
same,Keimung von Achänen in %,Sonnenblume Linie BK 119; [3],"100,0%"
same,Masse von 1000 Achänen in %,Sonnenblume Linie BK 119; [3],"59,5%"
same,Ölgehalt von Achänen in g,Sonnenblume Linie BK 119; [3],"50,3 g"
"ClCC(Br)CBr (stereo not drawn) [Beispiel 7, 1,2-Dibrom-3-chlorpropan]",Keimung von Achänen in %,[1]; [4],"100,0%"
same,Masse von 1000 Achänen,[1]; [4],"89,0"
same,Ölgehalt von Achänen in %,[1]; [4],"53,5%"
same,Keimung von Achänen in %,Sonnenblume Linie BK 119; [5],"99,3%"
same,Masse von 1000 Achänen in %,Sonnenblume Linie BK 119; [5],"54,0%"
same,Ölgehalt von Achänen in g,Sonnenblume Linie BK 119; [5],"51,6 g"
